# PubChem BioAssay AID743454, Peter MacCallum Cancer Centre, 2014
# Assay: 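Search for knock-downs that restore vorinostat killing in resistant colon cancer cells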 (primary screen)
# Cell system: human HCT116-VR colon cancer cells, selected for vorinostat resistance
# Knock-down reagent: siRNA pool against human genes, 40 nM siRNA pool
# Time to read-out: vorinostat for 24 h, read-out about 72 h after transfection
# Conditions: vorinostat at 2.5 µM final
# Read-out: 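Cell viability by CellTiter-Fluor and caspase 3/7 activity by luminescence, each scaled to mock wells per plate, duplicates averaged, then robust z-scored over all plates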
# Scale: viability robust z-score: higher = more viable cells than screen typical; caspase robust z-score: higher = more caspase 3/7 activity than screen typical
# Call rule: 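a knock-down is a hit when classed RV1 or RV2 for lowered viability, or CA1 or CA2 for caspase activation; those lethal without drug were dropped; hits were retested singly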
# This is an unselected part of about 18,000 deposited reagents. 450 of them (2.5%) were called active. 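Single biological run; no consistent viability z cut-off exists, so the class columns, not z-scores, define the calls.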 No sequences are given here.
The opening 2 entries, to show the layout:
target,viability hit class,caspase hit class,viability robust z-score,caspase robust z-score,call
SLC2A4RG (SLC2A4 regulator),no change,no change,-0.54,2.53,inactive
"PCDHGB4 (protocadherin gamma subfamily B, 4)",no change,no change,0.3,-0.99,inactive

Results, repeating the preview:
target,viability hit class,caspase hit class,viability robust z-score,caspase robust z-score,call
SLC2A4RG (SLC2A4 regulator),no change,no change,-0.54,2.53,inactive
"PCDHGB4 (protocadherin gamma subfamily B, 4)",no change,no change,0.3,-0.99,inactive
TLX1 (T cell leukemia homeobox 1),no change,no change,0.15,0.86,inactive
ZP4 (zona pellucida glycoprotein 4),no change,no change,0.02,-0.2,inactive
"FOSL1 (FOS like 1, AP-1 transcription factor subunit)",no change,no change,1.15,0.72,inactive
LRRCC1 (leucine rich repeat and coiled-coil centrosomal protein 1),no change,no change,-0.94,0.48,inactive
FPGT (fucose-1-phosphate guanylyltransferase),no change,no change,0.26,-0.47,inactive
NR3C2 (nuclear receptor subfamily 3 group C member 2),no change,no change,0.38,-0.19,inactive
KLF8 (KLF transcription factor 8),no change,no change,0.4,-0.92,inactive
TOX (thymocyte selection associated high mobility group box),no change,no change,-0.28,0.3,inactive
E2F4 (E2F transcription factor 4),no change,no change,0.94,-0.76,inactive
SCN3B (sodium voltage-gated channel beta subunit 3),no change,no change,0.36,-0.77,inactive
COQ10A (coenzyme Q10A),no change,no change,-1.02,-0.74,inactive
GJB2 (gap junction protein beta 2),no change,no change,0.29,-0.5,inactive
RGS20 (regulator of G protein signaling 20),no change,no change,-2.62,3.1,inactive
NPY4R (neuropeptide Y receptor Y4),no change,no change,-1.88,4.97,inactive
CYP2E1 (cytochrome P450 family 2 subfamily E member 1),no change,no change,0.3,-0.2,inactive
KLK3 (kallikrein related peptidase 3),no change,no change,-3.11,0.43,inactive
RASSF9 (Ras association domain family member 9),no change,no change,0.15,-0.7,inactive
RWDD2A (RWD domain containing 2A),no change,CA1 (caspase activation),0.56,5.83,active
MAPRE2 (microtubule associated protein RP/EB family member 2),no change,no change,-1.02,0.79,inactive
ELOB (elongin B),no change,no change,-0.42,-0.05,inactive
OR10G3 (olfactory receptor family 10 subfamily G member 3),no change,no change,0.6,-0.02,inactive
IGFBPL1 (insulin like growth factor binding protein like 1),no change,no change,-0.16,-0.45,inactive
GON4L (gon-4 like),no change,no change,-1.27,-1.15,inactive
UGT1A10 (UDP glucuronosyltransferase family 1 member A10),no change,no change,-0.5,-0.74,inactive
GRM3 (glutamate metabotropic receptor 3),no change,no change,1.16,-0.66,inactive
WASF1 (WASP family member 1),no change,no change,0.23,-0.56,inactive
SCN9A (sodium voltage-gated channel alpha subunit 9),no change,no change,-1.88,-0.78,inactive
ZNF230 (zinc finger protein 230),no change,no change,-0.07,-1.12,inactive
DIRAS1 (DIRAS family GTPase 1),no change,no change,0.14,2.57,inactive
EXOSC10 (exosome component 10),no change,no change,-2.54,-1.23,inactive
"ST3GAL4 (ST3 beta-galactoside alpha-2,3-sialyltransferase 4)",no change,no change,-0.4,0.72,inactive
USP26 (ubiquitin specific peptidase 26),no change,no change,0.22,-0.4,inactive
AP1M2 (adaptor related protein complex 1 subunit mu 2),no change,no change,-0.3,-0.68,inactive
SMR3A (submaxillary gland androgen regulated protein 3A),no change,no change,-2.55,3.12,inactive
SLC68A1,no change,no change,0.55,0.64,inactive
TICRR (TOPBP1 interacting checkpoint and replication regulator),no change,no change,-0.56,0.38,inactive
NUP43 (nucleoporin 43),no change,no change,0,0.06,inactive
